Source: the supplement of paper PMC10849652
The other results are listed elsewhere or left out.

Protein sequences, listed by entry. Tags and fused reporters are not part of them. Lines headed by an entry give the natural chain unless they say otherwise; changes in a name come on top.
UniProt P41440: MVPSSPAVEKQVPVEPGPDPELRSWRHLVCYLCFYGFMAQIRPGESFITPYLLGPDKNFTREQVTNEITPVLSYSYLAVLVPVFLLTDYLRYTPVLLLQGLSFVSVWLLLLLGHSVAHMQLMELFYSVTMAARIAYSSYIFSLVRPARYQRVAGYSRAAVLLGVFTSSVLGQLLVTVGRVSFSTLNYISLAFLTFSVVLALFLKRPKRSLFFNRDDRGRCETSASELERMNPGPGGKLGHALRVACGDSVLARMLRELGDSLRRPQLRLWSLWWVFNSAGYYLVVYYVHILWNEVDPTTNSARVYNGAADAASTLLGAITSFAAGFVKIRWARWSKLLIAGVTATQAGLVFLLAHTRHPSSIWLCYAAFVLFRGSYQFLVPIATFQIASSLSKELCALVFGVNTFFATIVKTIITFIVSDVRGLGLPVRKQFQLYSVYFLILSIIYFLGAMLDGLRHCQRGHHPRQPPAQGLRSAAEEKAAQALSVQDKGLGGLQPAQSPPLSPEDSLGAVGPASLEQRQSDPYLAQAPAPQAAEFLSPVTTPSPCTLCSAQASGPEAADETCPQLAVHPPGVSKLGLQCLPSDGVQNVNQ
UniProt P29353: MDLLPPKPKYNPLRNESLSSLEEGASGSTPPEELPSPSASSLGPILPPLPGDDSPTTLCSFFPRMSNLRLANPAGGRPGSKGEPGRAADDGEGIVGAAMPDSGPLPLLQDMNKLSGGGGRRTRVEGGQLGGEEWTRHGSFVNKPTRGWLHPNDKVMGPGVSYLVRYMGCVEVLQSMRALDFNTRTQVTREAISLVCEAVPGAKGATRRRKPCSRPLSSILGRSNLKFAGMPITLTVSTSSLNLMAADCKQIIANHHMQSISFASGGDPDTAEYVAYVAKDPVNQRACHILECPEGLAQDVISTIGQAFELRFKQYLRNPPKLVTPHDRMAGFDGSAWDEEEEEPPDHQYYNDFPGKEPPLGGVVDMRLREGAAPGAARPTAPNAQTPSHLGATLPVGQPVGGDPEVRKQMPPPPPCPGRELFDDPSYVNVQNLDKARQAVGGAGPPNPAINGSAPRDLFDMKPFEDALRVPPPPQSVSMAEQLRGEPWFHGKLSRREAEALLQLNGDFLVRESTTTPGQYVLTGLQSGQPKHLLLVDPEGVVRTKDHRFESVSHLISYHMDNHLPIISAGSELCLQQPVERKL
UniProt Q9H299: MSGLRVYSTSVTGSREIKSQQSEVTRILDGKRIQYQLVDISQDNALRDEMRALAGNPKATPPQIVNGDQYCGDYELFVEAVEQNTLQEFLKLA
UniProt Q9BX95: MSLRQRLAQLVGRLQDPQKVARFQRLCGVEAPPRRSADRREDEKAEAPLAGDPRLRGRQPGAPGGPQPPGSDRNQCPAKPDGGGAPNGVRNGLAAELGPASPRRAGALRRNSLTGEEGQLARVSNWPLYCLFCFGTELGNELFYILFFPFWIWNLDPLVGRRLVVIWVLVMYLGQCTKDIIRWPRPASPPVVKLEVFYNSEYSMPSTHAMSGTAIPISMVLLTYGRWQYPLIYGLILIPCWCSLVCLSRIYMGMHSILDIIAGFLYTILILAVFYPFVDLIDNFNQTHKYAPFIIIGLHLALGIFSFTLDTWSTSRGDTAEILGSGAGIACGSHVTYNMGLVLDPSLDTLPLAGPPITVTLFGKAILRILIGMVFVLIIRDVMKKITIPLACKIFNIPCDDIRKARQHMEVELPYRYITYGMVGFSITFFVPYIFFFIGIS
UniProt P84101: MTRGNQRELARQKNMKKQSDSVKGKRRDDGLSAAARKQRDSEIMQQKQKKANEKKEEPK
UniProt P49281: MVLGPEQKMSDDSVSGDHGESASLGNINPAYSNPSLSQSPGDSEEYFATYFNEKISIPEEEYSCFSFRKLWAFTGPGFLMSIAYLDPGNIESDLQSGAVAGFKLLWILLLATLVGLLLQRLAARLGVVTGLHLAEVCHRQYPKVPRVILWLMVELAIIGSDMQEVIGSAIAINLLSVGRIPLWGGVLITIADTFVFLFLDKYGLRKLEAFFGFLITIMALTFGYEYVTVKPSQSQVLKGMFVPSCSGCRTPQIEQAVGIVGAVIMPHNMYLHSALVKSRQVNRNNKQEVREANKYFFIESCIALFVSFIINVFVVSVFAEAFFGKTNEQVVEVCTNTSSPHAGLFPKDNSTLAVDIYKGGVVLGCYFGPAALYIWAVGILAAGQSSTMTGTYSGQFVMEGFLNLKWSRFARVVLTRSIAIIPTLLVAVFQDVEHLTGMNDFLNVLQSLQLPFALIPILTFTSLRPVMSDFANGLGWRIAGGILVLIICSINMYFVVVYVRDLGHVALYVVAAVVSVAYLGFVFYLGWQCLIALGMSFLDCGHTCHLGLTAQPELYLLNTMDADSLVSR
UniProt Q8NC51: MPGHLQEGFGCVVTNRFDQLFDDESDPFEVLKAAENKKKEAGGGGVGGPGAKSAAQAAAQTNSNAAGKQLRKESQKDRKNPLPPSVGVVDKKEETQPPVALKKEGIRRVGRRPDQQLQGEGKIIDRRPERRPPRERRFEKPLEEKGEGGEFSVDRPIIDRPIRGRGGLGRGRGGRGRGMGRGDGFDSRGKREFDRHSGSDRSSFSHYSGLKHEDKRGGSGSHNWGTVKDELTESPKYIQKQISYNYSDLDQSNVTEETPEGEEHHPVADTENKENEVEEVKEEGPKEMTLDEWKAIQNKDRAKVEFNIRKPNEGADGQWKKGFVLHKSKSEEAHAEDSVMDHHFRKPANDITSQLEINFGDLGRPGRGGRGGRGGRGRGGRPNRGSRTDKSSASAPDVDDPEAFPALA
UniProt Q08357: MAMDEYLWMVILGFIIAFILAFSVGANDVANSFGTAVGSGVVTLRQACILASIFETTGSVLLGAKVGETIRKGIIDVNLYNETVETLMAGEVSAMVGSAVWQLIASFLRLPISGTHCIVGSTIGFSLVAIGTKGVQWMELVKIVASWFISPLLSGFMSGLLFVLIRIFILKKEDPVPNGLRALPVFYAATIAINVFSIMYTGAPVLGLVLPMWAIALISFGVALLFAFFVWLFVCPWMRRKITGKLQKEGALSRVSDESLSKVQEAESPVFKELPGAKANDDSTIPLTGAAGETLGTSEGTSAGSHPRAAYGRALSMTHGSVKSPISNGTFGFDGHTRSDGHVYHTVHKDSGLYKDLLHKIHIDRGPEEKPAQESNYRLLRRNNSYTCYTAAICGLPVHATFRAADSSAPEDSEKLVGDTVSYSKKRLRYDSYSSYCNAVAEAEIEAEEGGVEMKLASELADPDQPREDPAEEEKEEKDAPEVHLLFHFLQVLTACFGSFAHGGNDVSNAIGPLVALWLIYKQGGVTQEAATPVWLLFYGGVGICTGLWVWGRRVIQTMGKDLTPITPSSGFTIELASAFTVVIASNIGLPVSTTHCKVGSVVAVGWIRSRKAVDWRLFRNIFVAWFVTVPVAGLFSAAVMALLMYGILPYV
UniProt O75533, whole entry, looked up: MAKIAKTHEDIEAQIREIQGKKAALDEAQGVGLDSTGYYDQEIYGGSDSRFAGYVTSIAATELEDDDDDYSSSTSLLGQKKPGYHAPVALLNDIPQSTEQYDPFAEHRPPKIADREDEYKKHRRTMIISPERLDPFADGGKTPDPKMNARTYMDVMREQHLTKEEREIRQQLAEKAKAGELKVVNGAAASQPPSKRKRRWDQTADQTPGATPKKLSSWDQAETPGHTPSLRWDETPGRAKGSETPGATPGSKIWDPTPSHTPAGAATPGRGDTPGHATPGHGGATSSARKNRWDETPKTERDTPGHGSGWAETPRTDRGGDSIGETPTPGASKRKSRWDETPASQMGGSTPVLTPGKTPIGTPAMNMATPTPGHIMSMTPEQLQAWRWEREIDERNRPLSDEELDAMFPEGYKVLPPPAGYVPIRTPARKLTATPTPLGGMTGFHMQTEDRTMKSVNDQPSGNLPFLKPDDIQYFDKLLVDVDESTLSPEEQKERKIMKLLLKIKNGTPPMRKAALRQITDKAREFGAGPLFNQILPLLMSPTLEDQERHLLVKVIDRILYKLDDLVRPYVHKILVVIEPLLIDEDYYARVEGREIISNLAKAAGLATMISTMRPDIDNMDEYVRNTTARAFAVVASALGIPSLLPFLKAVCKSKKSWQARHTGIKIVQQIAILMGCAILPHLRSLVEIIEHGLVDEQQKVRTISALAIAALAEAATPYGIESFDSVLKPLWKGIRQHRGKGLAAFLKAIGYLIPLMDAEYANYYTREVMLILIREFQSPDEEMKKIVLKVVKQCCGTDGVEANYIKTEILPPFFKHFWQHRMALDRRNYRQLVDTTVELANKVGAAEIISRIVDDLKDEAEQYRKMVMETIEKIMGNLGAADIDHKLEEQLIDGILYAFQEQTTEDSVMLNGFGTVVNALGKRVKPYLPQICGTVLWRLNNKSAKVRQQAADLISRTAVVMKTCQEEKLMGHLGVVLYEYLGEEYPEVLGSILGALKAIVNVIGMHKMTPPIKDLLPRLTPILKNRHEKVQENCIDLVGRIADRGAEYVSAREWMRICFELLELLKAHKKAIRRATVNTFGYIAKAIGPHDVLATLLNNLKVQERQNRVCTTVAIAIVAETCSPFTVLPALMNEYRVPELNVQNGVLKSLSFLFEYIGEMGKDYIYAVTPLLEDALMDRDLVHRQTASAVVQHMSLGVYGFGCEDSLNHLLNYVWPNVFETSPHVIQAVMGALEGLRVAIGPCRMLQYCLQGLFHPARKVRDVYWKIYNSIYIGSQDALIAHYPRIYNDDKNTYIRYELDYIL
UniProt P43007: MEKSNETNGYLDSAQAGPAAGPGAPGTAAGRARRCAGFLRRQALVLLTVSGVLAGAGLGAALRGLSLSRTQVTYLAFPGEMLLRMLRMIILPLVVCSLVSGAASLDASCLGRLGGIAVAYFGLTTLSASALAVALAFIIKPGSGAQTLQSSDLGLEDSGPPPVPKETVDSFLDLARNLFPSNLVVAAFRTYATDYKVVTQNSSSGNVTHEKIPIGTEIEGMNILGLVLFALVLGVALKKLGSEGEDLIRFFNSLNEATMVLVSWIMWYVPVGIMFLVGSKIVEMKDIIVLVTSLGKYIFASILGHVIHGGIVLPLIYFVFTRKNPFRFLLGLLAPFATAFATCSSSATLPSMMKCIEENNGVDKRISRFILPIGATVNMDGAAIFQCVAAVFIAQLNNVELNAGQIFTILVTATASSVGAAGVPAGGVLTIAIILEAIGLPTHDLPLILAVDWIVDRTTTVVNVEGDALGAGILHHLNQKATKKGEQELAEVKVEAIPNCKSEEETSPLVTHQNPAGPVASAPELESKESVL
UniProt Q8N697: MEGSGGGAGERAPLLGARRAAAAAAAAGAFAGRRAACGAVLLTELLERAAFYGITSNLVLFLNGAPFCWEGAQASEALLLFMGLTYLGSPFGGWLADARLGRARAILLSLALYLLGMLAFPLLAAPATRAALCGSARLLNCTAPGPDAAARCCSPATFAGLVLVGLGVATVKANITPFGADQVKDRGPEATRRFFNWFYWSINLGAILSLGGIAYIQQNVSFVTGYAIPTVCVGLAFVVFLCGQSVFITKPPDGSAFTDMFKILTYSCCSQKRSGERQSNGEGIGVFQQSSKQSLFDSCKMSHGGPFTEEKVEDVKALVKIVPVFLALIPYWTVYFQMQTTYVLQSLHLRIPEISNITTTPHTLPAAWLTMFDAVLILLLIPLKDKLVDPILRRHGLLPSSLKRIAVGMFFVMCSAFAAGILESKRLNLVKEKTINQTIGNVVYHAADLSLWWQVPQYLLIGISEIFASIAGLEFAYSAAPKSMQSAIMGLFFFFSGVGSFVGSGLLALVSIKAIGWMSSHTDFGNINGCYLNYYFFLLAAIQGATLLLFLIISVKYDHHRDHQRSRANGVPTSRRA
UniProt Q9NRA2: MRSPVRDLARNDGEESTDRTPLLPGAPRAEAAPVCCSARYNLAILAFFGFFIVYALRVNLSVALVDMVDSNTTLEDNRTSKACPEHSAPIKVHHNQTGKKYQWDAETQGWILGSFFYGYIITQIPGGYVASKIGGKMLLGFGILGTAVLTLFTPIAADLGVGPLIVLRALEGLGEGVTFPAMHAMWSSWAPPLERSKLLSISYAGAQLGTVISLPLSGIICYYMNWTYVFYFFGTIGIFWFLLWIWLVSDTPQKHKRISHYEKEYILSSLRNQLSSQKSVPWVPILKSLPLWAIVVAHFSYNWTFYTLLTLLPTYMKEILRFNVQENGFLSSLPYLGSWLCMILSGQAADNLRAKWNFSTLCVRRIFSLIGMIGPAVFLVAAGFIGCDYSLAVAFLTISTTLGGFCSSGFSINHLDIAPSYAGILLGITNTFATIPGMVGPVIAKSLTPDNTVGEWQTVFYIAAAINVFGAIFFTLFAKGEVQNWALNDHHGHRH

Assays:
Test in all cases: log2 fold change, soluble protein after heating vs DMSO (PISA); higher = thermal stabilisation; K562 lysate, 10 uM; active = over 0.2 and 3.5 SD of the protein, either way, in both replicates (recomputed)
[1] = compound: CCCS(=O)(=O)Nc1ccc(F)c(C(=O)c2c[nH]c3ncc(-c4ccc(Cl)cc4)cc23)c1F [vemurafenib]
In short: (§1)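 Soluble protein was defined as the supernatant remaining after 21,000xg for 90 min, following pooling of heated aliquots and adjustment to 0.5% NP-40 at 4°C. Before that, crude K562 extract at 1 mg/mL protein in PBS pH 7.4 with 1 mM MgCl2 was treated with 10 μM compound for 30 min and heated for 3 min across 48°C-58°C. Quantification used TMTpro 16plex LC-MS/MS with channel sums equalised, and values are log-two fold changes in thermal stability relative to solvent controls from duplicates.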

[2] = compound: CCCS(=O)(=O)Nc1ccc(F)c(C(=O)c2c[nH]c3ncc(Cl)cc23)c1F
In short: as §1

[3] = compound: CCN(CCCOc1ccc2c(Nc3cc(CC(=O)Nc4cccc(F)c4)[nH]n3)ncnc2c1)CCOP(=O)(O)O [barasertib]
In short: as §1

[4] = compound: CC[C@@H]1C(=O)N(C)c2cnc(Nc3ccc(C(=O)NC4CCN(C)CC4)cc3OC)nc2N1C1CCCC1
In short: as §1

[5] = compound: CC[C@@H]1C(=O)N(C)c2cnc(Nc3ccc(C(=O)N[C@H]4CC[C@H](N5CCN(CC6CC6)CC5)CC4)cc3OC)nc2N1C(C)C [volasertib]
In short: as §1

[6] = compound: CCn1c(C(=O)N(C2CC2)C2CC2)cc2c3c(ncn3C)c(Nc3cc(C)n(C)n3)nc21
In short: as §1

[7] = compound: CCn1cc(-c2ccnc3[nH]c(-c4cccc(CN(C)C)c4)cc23)c(-c2ccc(NC(=O)N(C)C)cc2)n1
In short: as §1

[8] = compound: CN1CCC(CNc2ccc3ncc(-c4cccc(OC(F)(F)F)c4)n3n2)CC1
In short: as §1

[9] = compound: CN1CCN(CCOc2cc(OC3CCOCC3)c3c(Nc4c(Cl)ccc5c4OCO5)ncnc3c2)CC1 [saracatinib]
In short: as §1

[10] = compound: CN1CCN(c2nc(C3=C(c4c[nH]c5ccccc45)C(=O)NC3=O)c3ccccc3n2)CC1 [sotrastaurin]
In short: as §1

[11] = compound: CN1CC[C@H](c2c(O)cc(O)c3c(=O)cc(-c4ccccc4Cl)oc23)[C@H](O)C1 [alvocidib]
In short: as §1

[12] = compound: CN1CCc2c(c3ccccc3n2Cc2ccc(C(=O)NO)cc2)C1 [Tubastatin A]
In short: as §1

[13] = compound: CNC(=O)C1=CC=CC=C1NC2=NC(=NC=C2Cl)NC3=C(C=C(C=C3)N4CCOCC4)OC
In short: as §1

[14] = compound: CNC(=O)c1ccc(Nc2ncc(C(F)(F)F)c(NCc3nccnc3N(C)S(C)(=O)=O)n2)cc1 [defactinib]
In short: as §1

[15] = compound: CNc1nc(-c2ccc3c(N)n[nH]c3c2)cc(N2C[C@@H](C(=O)NC3CCCCC3)CC[C@H]2C)n1
In short: as §1

[16] = compound: COC(=O)N[C@@H](C)CNc1nccc(-c2cn(C(C)C)nc2-c2cc(Cl)cc(NS(C)(=O)=O)c2F)n1 [encorafenib]
In short: as §1

[17] = compound: COC(=O)[C@H](CCSC)NC(=O)C1=C(C=C(C=C1)NC[C@H](CS)N)C2=CC=CC=C2
In short: as §1

[18] = compound: COc1cc(Nc2ncc3c(n2)-c2ccc(Cl)cc2C(c2c(F)cccc2OC)=NC3)ccc1C(=O)O [alisertib]
In short: as §1

[19] = compound: COc1cc2nc(-c3cc(F)ccc3O)nc(N[C@@H]3CNC[C@H]3C(C)(C)O)c2cc1OC
In short: as §1

[20] = compound: COc1cc2ncnc(Nc3ccc(F)c(Cl)c3)c2cc1OCCCN1CCOCC1 [gefitinib]
In short: as §1

| Target | log2 fold change [1] | log2 fold change [2] | log2 fold change [3] | log2 fold change [4] | log2 fold change [5] | log2 fold change [6] | log2 fold change [7] | log2 fold change [8] | log2 fold change [9] | log2 fold change [10] | log2 fold change [11] | log2 fold change [12] | log2 fold change [13] | log2 fold change [14] | log2 fold change [15] | log2 fold change [16] | log2 fold change [17] | log2 fold change [18] | log2 fold change [19] | log2 fold change [20] |
| --- | --- | --- | --- | --- | --- | --- | --- | --- | --- | --- | --- | --- | --- | --- | --- | --- | --- | --- | --- | --- |
| SLC19A1 (UniProt P41440) | inactive: 0.028 | inactive: -0.005 | inactive: 0.059 | inactive: 0.014 | inactive: 0.047 | inactive: -0.036 | inactive: -0.203 | inactive: 0.165 | inactive: 0.019 | inactive: 0.025 | inactive: -0.106 | inactive: 0.047 | inactive: 0.025 | inactive: 0.01 | inactive: 0.037 | inactive: 0.011 | inactive: -0.018 | inactive: -0.005 | inactive: 0.039 | inactive: 0.026 |
| SHC1 isoform 6 (UniProt P29353) | inactive: 0.028 | inactive: 0.003 | inactive: 0.008 | inactive: -0.027 | inactive: 0.01 | inactive: -0.035 | active: 0.635 | inactive: -0.163 | inactive: -0.007 | inactive: 0.017 | inactive: 0.186 | inactive: 0.035 | inactive: 0.001 | inactive: -0.031 | inactive: 0.086 | inactive: 0.15 | inactive: -0.078 | inactive: -0.008 | inactive: -0.014 | inactive: -0.035 |
| SH3BGRL3 (UniProt Q9H299) | inactive: 0.021 | inactive: 0.016 | inactive: 0.099 | inactive: 0.011 | inactive: 0.017 | inactive: 0.025 | inactive: -0.078 | inactive: -0.032 | inactive: 0.001 | inactive: 0.016 | inactive: 0.007 | inactive: 0.022 | inactive: 0.003 | inactive: 0.04 | inactive: 0.036 | inactive: -0.048 | inactive: 0.004 | inactive: 0 | inactive: -0.021 | inactive: -0.061 |
| SGPP1 (UniProt Q9BX95) | inactive: -0.06 | inactive: 0.013 | inactive: 0.042 | inactive: -0.209 | inactive: 0.017 | inactive: 0.093 | inactive: 0.12 | inactive: -0.068 | inactive: 0.008 | inactive: -0.033 | inactive: -0.007 | inactive: -0.175 | inactive: 0.035 | inactive: 0.036 | inactive: -0.019 | inactive: 0.146 | inactive: -0.005 | inactive: -0.045 | inactive: 0.003 | inactive: 0.006 |
| SERF2 (UniProt P84101) | inactive: 0.071 | inactive: -0.071 | inactive: 0.063 | inactive: 0.072 | inactive: -0.128 | inactive: -0.037 | inactive: -0.003 | inactive: 0.063 | inactive: -0.013 | inactive: -0.003 | inactive: -0.017 | inactive: 0.043 | inactive: -0.034 | inactive: 0.002 | inactive: 0.068 | inactive: 0.042 | inactive: -0.124 | inactive: -0.086 | inactive: 0.128 | inactive: 0.038 |
| SETDB1 (UniProt Q15047) | inactive: 0.045 | inactive: 0 | inactive: 0.127 | inactive: 0.039 | inactive: 0.079 | inactive: -0.062 | inactive: -0.173 | inactive: 0.04 | inactive: -0.021 | inactive: 0.012 | inactive: -0.085 | inactive: 0.077 | inactive: -0.021 | inactive: -0.057 | inactive: -0.005 | inactive: -0.03 | inactive: 0.04 | inactive: -0.001 | inactive: 0.121 | inactive: 0.075 |
| SFXN4 (UniProt Q6P4A7) | inactive: 0.111 | inactive: 0.002 | inactive: -0.061 | inactive: 0.115 | inactive: 0.032 | inactive: -0.028 | inactive: -0.168 | inactive: 0.035 | inactive: 0.044 | inactive: 0.014 | inactive: -0.033 | inactive: 0.014 | inactive: 0.009 | inactive: -0.105 | inactive: 0.029 | inactive: 0.014 | inactive: 0.064 | inactive: -0.007 | inactive: -0.031 | inactive: -0.004 |
| SLC11A2 isoform 3 (UniProt P49281) | inactive: -0.009 | inactive: 0.043 | inactive: 0.019 | inactive: 0.073 | inactive: 0.026 | inactive: 0.036 | inactive: -0.082 | inactive: 0.074 | inactive: 0.028 | inactive: -0.012 | inactive: -0.032 | inactive: -0.047 | inactive: 0.031 | inactive: -0.001 | inactive: -0.008 | inactive: 0.063 | inactive: -0.027 | inactive: 0.128 | inactive: 0.021 | active: 0.295 |
| SERBP1 (UniProt Q8NC51) | inactive: -0.039 | inactive: -0.012 | inactive: -0.043 | inactive: 0.119 | inactive: 0.028 | inactive: -0.017 | inactive: 0.29 | inactive: -0.03 | inactive: -0.028 | inactive: -0.003 | inactive: 0.027 | inactive: 0.057 | inactive: 0.018 | inactive: -0.041 | inactive: 0.029 | inactive: -0.035 | inactive: -0.02 | inactive: 0.007 | inactive: -0.014 | inactive: 0.017 |
| SLC20A2 (UniProt Q08357) | inactive: 0.086 | inactive: 0.007 | inactive: 0.081 | inactive: 0.035 | inactive: 0.017 | inactive: 0.062 | inactive: 0.054 | inactive: 0.027 | inactive: 0.154 | inactive: 0.051 | inactive: -0.001 | inactive: -0.121 | – | inactive: 0.032 | inactive: -0.055 | inactive: -0.021 | inactive: -0.132 | inactive: -0.137 | inactive: 0.033 | inactive: 0.203 |
| SF3B1 (UniProt O75533) | inactive: -0.006 | inactive: 0.006 | inactive: 0.003 | inactive: -0.018 | inactive: -0.016 | inactive: -0.019 | inactive: -0.033 | inactive: 0.041 | inactive: 0.01 | inactive: 0.02 | inactive: -0.004 | inactive: -0.047 | inactive: 0.012 | inactive: -0.018 | inactive: -0.015 | inactive: 0.005 | inactive: 0.075 | inactive: 0.022 | inactive: -0.013 | inactive: -0.025 |
| SERPINI1 (UniProt Q99574) | inactive: 0.027 | inactive: 0.008 | inactive: -0.006 | inactive: 0.024 | inactive: -0.001 | inactive: 0.03 | inactive: 0.001 | inactive: 0.069 | inactive: 0 | inactive: 0.016 | inactive: -0.031 | inactive: 0.015 | inactive: -0.001 | inactive: 0.019 | inactive: -0.042 | inactive: 0.02 | inactive: -0.074 | inactive: -0.064 | inactive: 0.013 | inactive: 0.048 |
| SLC1A4 (UniProt P43007) | inactive: 0.011 | inactive: -0.011 | inactive: -0.026 | inactive: 0.017 | inactive: 0.021 | inactive: 0.013 | inactive: -0.084 | inactive: 0.048 | inactive: -0.02 | inactive: 0.043 | inactive: -0.039 | inactive: -0.008 | inactive: -0.015 | inactive: -0.013 | inactive: 0.064 | inactive: 0.029 | inactive: -0.036 | inactive: -0.012 | inactive: 0.027 | inactive: 0.04 |
| SLC15A4 (UniProt Q8N697) | inactive: 0.018 | inactive: 0.018 | inactive: 0.009 | inactive: -0.069 | inactive: 0.037 | – | inactive: -0.221 | inactive: 0.367 | inactive: -0.042 | inactive: 0.081 | inactive: 0.186 | – | inactive: 0.042 | inactive: -0.032 | inactive: -0.015 | inactive: -0.092 | inactive: 0.021 | – | inactive: -0.005 | – |
| SLC17A5 (UniProt Q9NRA2) | inactive: -0.015 | inactive: 0.069 | inactive: 0.117 | inactive: 0.042 | inactive: -0.023 | inactive: -0.053 | inactive: -0.061 | inactive: 0.187 | inactive: -0.114 | – | inactive: -0.1 | inactive: 0.054 | inactive: -0.016 | inactive: -0.14 | inactive: 0.208 | inactive: 0.031 | inactive: -0.115 | inactive: -0.019 | inactive: -0.042 | inactive: 0.037 |

3 entries from above, comma-delimited:
Target,log2 fold change [1],log2 fold change [2],log2 fold change [3],log2 fold change [4],log2 fold change [5],log2 fold change [6],log2 fold change [7],log2 fold change [8],log2 fold change [9],log2 fold change [10],log2 fold change [11],log2 fold change [12],log2 fold change [13],log2 fold change [14],log2 fold change [15],log2 fold change [16],log2 fold change [17],log2 fold change [18],log2 fold change [19],log2 fold change [20]
SLC1A4 (UniProt P43007),inactive: 0.011,inactive: -0.011,inactive: -0.026,inactive: 0.017,inactive: 0.021,inactive: 0.013,inactive: -0.084,inactive: 0.048,inactive: -0.02,inactive: 0.043,inactive: -0.039,inactive: -0.008,inactive: -0.015,inactive: -0.013,inactive: 0.064,inactive: 0.029,inactive: -0.036,inactive: -0.012,inactive: 0.027,inactive: 0.04
SLC15A4 (UniProt Q8N697),inactive: 0.018,inactive: 0.018,inactive: 0.009,inactive: -0.069,inactive: 0.037,–,inactive: -0.221,inactive: 0.367,inactive: -0.042,inactive: 0.081,inactive: 0.186,–,inactive: 0.042,inactive: -0.032,inactive: -0.015,inactive: -0.092,inactive: 0.021,–,inactive: -0.005,–
SLC17A5 (UniProt Q9NRA2),inactive: -0.015,inactive: 0.069,inactive: 0.117,inactive: 0.042,inactive: -0.023,inactive: -0.053,inactive: -0.061,inactive: 0.187,inactive: -0.114,–,inactive: -0.1,inactive: 0.054,inactive: -0.016,inactive: -0.14,inactive: 0.208,inactive: 0.031,inactive: -0.115,inactive: -0.019,inactive: -0.042,inactive: 0.037
